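Viability assay of Plasmodium falciparum sporozoites; the read-out is not stated. The concentration is filed as 10 mM, unlikely as a test dose, so the dose is not known. Higher reads as lower viability (inferred: compounds with an IC50 in retests scored well above the rest). Strong results were mostly tested again. Size under these conditions: about 34,000 compounds, about 280 of them at 50% or above in at least one test.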

The filed quantity is “Percent Effect” (%).
The controls that fix the scale are not given in the record; negative values are as filed.
Compounds were drawn at random from those tested, without regard to their results.
Two or more numbers in one place are separate tests of the same structure; such repeats can differ widely.

| SMILES | effect |
|---|---|
| `[H][C@@]12COC[C@]1(COCc1ccncc1)CN(C(=O)C1=CCCC1)C2` | 2.026 |
| `Cc1cc(-n2nnc(C(=O)O)c2-c2ccncc2)ccc1F` | 12.99 |
| `[H][C@]12CN(C(C)=O)CCN1C[C@H](c1ccccc1)[C@H]2C(=O)OCC` | 0.2725 |
| `CCOc1cccc(C(C)NCc2c(C)nn(C)c2N(C)C)c1` (stereo not given) | 2.557 |
| `Cc1n[nH]c(C)c1CCC(=O)NCC1(O)CCN(c2ccccn2)C1` (stereo not given) | 1.744 |
| `CCC(=O)N1CCC(Cc2ccccc2-c2ccccc2)(C(N)=O)C1` (stereo not given) | 7.266 |
| `[H][C@@]12CCN(C(=O)c3c(C)noc3C)C[C@@]1([H])O[C@H](c1ccncn1)C2` | -1.007 |
| `O=C(NCc1ccccc1)N1CCC2(CC(=O)N(c3ccccc3)C2)C1` (stereo not given) | 10.11 |
| `COc1ccc(C)cc1CN1CCCC1Cn1nc(C)nc1C` (stereo not given) | -15.04 |
| `Cc1nc(CN2CCC23CCN(C(=O)c2ccco2)CC3)cs1` | -2.277 |
| `[H][C@@]12CN(C(=O)[C@H]3CCCO3)C[C@]1([H])C(=O)N(CC(C)C)C2` | 18.45 |
| `c1cc(-c2cncnc2)cc(-c2ccn(CC3CCNC3)n2)c1` (stereo not given) | -11.99 & -9.692 & -21.27 |
| `Cc1nccn1C1CCCN(C(=O)c2cccc(Cn3ccnc3)c2)C1` (stereo not given) | -3.785 |
| `Cc1c[nH]c(CN2CCCn3nc(CNS(C)(=O)=O)cc3C2)n1` | -5.623 |
| `Cc1cc(C)n(CC2CN(Cc3nc(-c4ccco4)no3)CCO2)n1` (stereo not given) | 6.222 |
| `O=C(Cc1csc(-c2ccccc2F)n1)NCc1cccc(C(=O)O)c1` | 7.601 |
| `CS(=O)(=O)N1CCCC12CCCN(S(=O)(=O)c1cc(F)cc(F)c1)C2` (stereo not given) | 20.76 |
| `Cc1ccc(N2CCCc3sc(C(=O)NCC4CCCO4)nc32)nn1` (stereo not given) | 17.71 |
| `NCCc1n[nH]c(=O)n1-c1cccc2ccccc12` | 0.7692 |
| `CNc1nc(C2CCN(C(=O)CC3CCCC3)C2)nc2c1CN(C)CC2` (stereo not given) | 2.462 |
| `Cc1occc1C(=O)N1CCc2c(COCC3CC3)cncc2C1` | 1.143 |
| `Cc1ccc(C(=O)NC2CCN(C(=O)Nc3ccccn3)CC2)o1` | -10.64 |
| `CC1=Nc2c(c(=O)[nH]n2C(C)C)C(c2ccc(F)c(F)c2)S1` (stereo not given) | -24.35 & -23.24 & -2.193 |
| `Cc1ccccc1C1CCN(CCn2cc(-c3nccn3C)nn2)C1` (stereo not given) | 2.628 & 7.198 |
| `Cc1cc(C(=O)N2CCC3(C2)CN(c2cccnc2)C(=O)CN3C)[nH]n1.O=C(O)C(F)(F)F.O=C(O)C(F)(F)F` (stereo not given) | 9.444 |
| `FC1(F)CCN(Cc2ccccn2)CC12CCN(c1cnccn1)C2.O=C(O)C(F)(F)F.O=C(O)C(F)(F)F.O=C(O)C(F)(F)F` (stereo not given) | 9.319 |
| `[H][C@@]12COC[C@]1(CNS(C)(=O)=O)CN(C(=O)c1ccoc1)C2` | -13.3 |
| `CNC(=O)c1cc2c(nc1NC(C)C)CCN(C(=O)NC(C)C)CC2` | -0.2307 |
| `CC(=O)N1CCC(c2n[nH]cc2-c2ccnc(N)c2)C1` (stereo not given) | -3.155 |
| `CC(=O)Nc1ncc(S(=O)(=O)Nc2ccc3c(c2)OCCO3)s1` | 98.04 & 98.83 |
| `Cc1c(CNC2CCN(c3ccccc3OC(F)F)C2)cnn1C` (stereo not given) | -6.316 |
| `NC(=O)CC1CCCCN1C(=O)Cc1cccc(Br)c1` (stereo not given) | 9.829 |
| `CS(=O)(=O)NCCCN1CCCCC1c1cc2ccccc2[nH]1` (stereo not given) | -3.043 |
| `CCCN1CCC(NC(=O)NCCc2nc(CC)c(C)s2)CC1` | -12.4 |
| `CC(OCC1CC1)C(=O)N1CCCN(c2nc3ccccc3[nH]2)CC1` (stereo not given) | -9.878 |
| `Cc1nc(Nc2cnccn2)cc(C2CCN(CCO)C2)n1.O=CO` (stereo not given) | -9.117 |
| `CC(C)c1cc2c(O)nc(CSCC(=O)NCc3ccccn3)nc2s1` | -16.71 & -25.87 |
| `Cc1n[nH]c(C)c1NC(=O)CN1CCN(c2nccs2)C(C)C1` (stereo not given) | 18.67 |
| `CCOCC(O)CN1CCN(C(=O)c2ccc(OC)cc2)CC1` (stereo not given) | -1.807 |
| `Cc1nnc2n1CC(CNCc1nc(-c3cccs3)no1)CC2` (stereo not given) | 25.19 |
| `CCNC(=O)C1(Cc2ccc(-c3ccccc3)cc2)CCCNC1` (stereo not given) | 13.8 |
| `O=C(c1cncc2ccccc12)N1CCC[C@@H]1CO` | 14.29 |
| `CN(CC1CCOCC1)C(C(=O)O)c1cccc(F)c1F` (stereo not given) | -3.837 |
| `CCOC(=O)c1sc2ccsc2c1CNS(C)(=O)=O` | 2.592 |
| `c1cncc(N2CCC(c3ccncc3)CC2)c1` | 5.32 |
| `CN1CCCc2cc(CNC(=O)c3ccncc3)ccc21` | 8.353 |
| `Cc1ccc(CN2CCc3ncnc(-c4ccncc4)c3CC2)o1.O=C(O)C(F)(F)F.O=C(O)C(F)(F)F` | -3.596 |
| `Cc1cccc(CN2CCC3(CC(C(=O)NCC(C)C)=NO3)C2)c1` (stereo not given) | 8.666 |
| `CCc1nc(CN2CCCN(C(=O)C(CC)OC)CC2)cs1` (stereo not given) | 13.71 |
| `CC(C)c1nnc2n1CCN(C(=O)c1cc3cc(F)ccc3[nH]1)C2` | 5.075 |
| `CN(C)c1ccc(CNC2(c3ccc(F)cc3)CCOCC2)cc1F` | -9.822 |
| `Cc1cc(C)nc(C2CCN(C3CCCCC3)C2)n1` (stereo not given) | -2.906 |
| `CCc1nccn1C1CCCN(C(=O)c2cnc3ccccc3n2)C1` (stereo not given) | -16.12 |
| `CCOc1ncccc1NC(=O)N1CCN(c2ccc(O)cc2)CC1` | -5.809 |
| `Cc1ccc(NC2CCN(C(=O)CCCc3ccccn3)CC2)nn1` | 18.63 & -3.675 & -4.858 |
| `c1cnc(-c2nc(CN3CCn4c(nnc4C4CC4)C3)cs2)nc1` | -1.384 |
| `CCOc1ccccc1CNC(=O)N1CCC(Cc2cnn(C)c2)C1` (stereo not given) | 11.69 |
| `CC(NC(=O)c1cnccn1)c1nnc2ccccn12` (stereo not given) | -1.665 |
| `CC(C)(C)c1ncc(CNCC2CCCN2c2cccnn2)s1` (stereo not given) | 13.03 |
| `CN(C)CCN1C(=O)CCC12CCCN(C(=O)CC1CC1)CC2` (stereo not given) | 6.498 |
| `COc1ncccc1CNC(=O)NCCNC(=O)c1ccco1` | 5.147 |
| `CCN(CC)c1ccc(CNC(=O)c2ccccn2)cn1` | 2.057 |
| `Nc1ccc(C(=O)N2CCCC(c3nccn3Cc3cscn3)C2)cn1` (stereo not given) | -15.7 |

Data taken from ChEMBL document CHEMBL3988442, “University of Dundee, Small-Polar-MMV Screening Library” (2021).